Results from patent publication US20260274954A1 (published 2026).

Target: cynomolgus PD-1 on activated cynomolgus PBMC (cynomolgus)
Assay: FACS on activated cynomolgus PBMC

binding	Binder
binds	2E5 (antibody, V domains shown) VH: QVQLVQSGAEVKKPGSSVKVSCKASGFTFTTYYISWVRQAPGQGLEYLGYINMGSGGTNYNEKFKGRVTITADKSTSTAYMELSSLRSEDTAVYYCAIIGYFDYWGQGTMVTVSS VL: DVVMTQSPLSLPVTLGQPASISCRSSQSLLDSDGGTYLYWFQQRPGQSPRRLIYLVSTLGSGVPDRFSGSGSGTDFTLKISRVEAEDVGVYYCMQLTHWPYTFGQGTKLEIK
binds	2C2 (antibody, V domains shown) VH: QVQLVQSGAEVKKPGSSVKVSCKASGFTFTTYYISWVRQAPGQGLEYLGYINMGSGGTNYNEKFKGRVTITADKSTSTAYMELSSLRSEDTAVYYCAIIGYFDYWGQGTMVTVSS VL: DVVMTQSPLSLPVTLGQPASISCRSSQSLLDSDGATYLYWFQQRPGQSPRRLIYLVSTLGSGVPDRFSGSGSGTDFTLKISRVEAEDVGVYYCMQLTHWPYTFGQGTKLEIK
binds	1H6 (antibody, V domains shown) VH: QVQLVQSGAEVKKPGSSVKVSCKASGFTFTTYYISWVRQAPGQGLEYLGYINMGSGGTNYNEKFKGRVTITADKSTSTAYMELSSLRSEDTAVYYCAILGYFDYWGQGTMVTVSS VL: DVVMTQSPLSLPVTLGQPASISCRSSQSLLDSDGGTYLYWFQQRPGQSPRRLIYLVSTLGSGVPDRFSGSGSGTDFTLKISRVEAEDVGVYYCMQLTHWPYTFGQGTKLEIK
binds	2G4 (antibody, V domains shown) VH: QVQLVQSGAEVKKPGSSVKVSCKASGFTFTTYYISWVRQAPGQGLEYLGYINMGSGGTNYNEKFKGRVTITADKSTSTAYMELSSLRSEDTAVYYCAIIGYFDYWGQGTMVTVSS VL: DVVMTQSPLSLPVTLGQPASISCRSSQSLLDSDGSTYLYWFQQRPGQSPRRLIYLVSTLGSGVPDRFSGSGSGTDFTLKISRVEAEDVGVYYCMQLTHWPYTFGQGTKLEIK

No constants are given. Whether binding was seen depends on the method and setting. A result given as binding can be weak or reduced; the word gives no strength.
